No constants are given. Whether binding was seen depends on the method and setting. Some results given as binding are weak or reduced against the parent protein; the word gives no strength.
Target: T1, HGFA (Val373-Ser655) (human) (UniProt Q04756)
T1 sequence: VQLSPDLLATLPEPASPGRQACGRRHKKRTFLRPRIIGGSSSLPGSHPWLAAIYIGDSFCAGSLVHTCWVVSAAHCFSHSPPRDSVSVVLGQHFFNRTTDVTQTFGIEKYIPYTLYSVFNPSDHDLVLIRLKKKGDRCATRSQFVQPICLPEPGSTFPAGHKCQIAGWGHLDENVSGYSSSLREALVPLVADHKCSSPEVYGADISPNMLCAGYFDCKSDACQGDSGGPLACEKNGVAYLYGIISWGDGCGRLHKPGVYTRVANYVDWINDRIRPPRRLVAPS
Assay: SPR (BIAcore) competition: HGFA with KD1 at 0, 2.5 or 10 nM injected over immobilised Ab40; competitor Ab40

B1: Kunitz domain inhibitor KD1 (protein, UniProt O43278 246-303, looked up)
chain: TEDYCLASNKVGRCRGSFPRWYYDPTEQICKSFVYGGCLGNKNNYLREEECILACRGV
modifications: biotinylated in the competition ELISA
Q: With B1 as the binder, how does the binding read?
A: binds

— patent US20110091477A1
